# Earlier results in patent US20130142872A1, “EMP2: Ethyl-Methyl, di Methyl, tri Methyl Pyruvate Acid Esters: A Tool for Regulating HbA1c and a Riboswitch Activator” (priority 2011, published 2013).
# At least one structure is not confirmed: it was looked up by name or label, or the drawing left a doubt. Some compounds share one wording; it may come from a single statement.
# System: THP-1 monocytic cells
# Settings: PMA-stimulated THP-1 cells
SMILES,"IL-1, IL-6 and TNFalpha (pro-inflammatory cytokine) secretion",IL-1Ra production
CN(CCOc1ccc(CC2SC(=O)NC2=O)cc1)c1ccccn1 (stereo not drawn) [rosiglitazone],barely inhibited,strongly enhanced
CCc1ccc(CCOc2ccc(CC3SC(=O)NC3=O)cc2)nc1 (stereo not drawn) [pioglitazone],barely inhibited,strongly enhanced
Cc1c(C)c2c(c(C)c1O)CCC(C)(COc1ccc(CC3SC(=O)NC3=O)cc1)O2 (stereo not drawn) [troglitazone],barely inhibited,strongly enhanced
